# Ends that are not written are not given here.
# System: intraluminal zonulin
# Assay: Intraluminal zonulin by sandwich ELISA of intestinal lavage
# Type: in vivo, rat
sequence,measurement,setting,value
"GGVLVQPG [FZI/O, synthetic octapeptide corresponding to amino acid residues 8-15 of human fetal zonulin]",intraluminal zonulin of treated rats that developed diabetes versus treated rats that did not,"rat, in vivo",3 fold
same,intraluminal zonulin of treated rats that did not develop diabetes,versus untreated controls,comparable with the untreated controls

# From patent US20060287233A1, “Method of use of antagonists of zonulin to prevent the loss of or to regenerate pancreatic cells” (priority 2005, published 2006)
